Assay results as given in doi:10.1101/2024.06.18.599485.
No constants are given. Whether binding was seen depends on the method and setting. Binding seen in cells or lysates may run through a third protein. Some binding calls cover weakened binding; strength is not graded here.

Sequences of proteins named here, by UniProt entry; tags and fusion partners are left off. A change or cut given only in a name is not applied to a line headed by its entry.
UniProt Q14738: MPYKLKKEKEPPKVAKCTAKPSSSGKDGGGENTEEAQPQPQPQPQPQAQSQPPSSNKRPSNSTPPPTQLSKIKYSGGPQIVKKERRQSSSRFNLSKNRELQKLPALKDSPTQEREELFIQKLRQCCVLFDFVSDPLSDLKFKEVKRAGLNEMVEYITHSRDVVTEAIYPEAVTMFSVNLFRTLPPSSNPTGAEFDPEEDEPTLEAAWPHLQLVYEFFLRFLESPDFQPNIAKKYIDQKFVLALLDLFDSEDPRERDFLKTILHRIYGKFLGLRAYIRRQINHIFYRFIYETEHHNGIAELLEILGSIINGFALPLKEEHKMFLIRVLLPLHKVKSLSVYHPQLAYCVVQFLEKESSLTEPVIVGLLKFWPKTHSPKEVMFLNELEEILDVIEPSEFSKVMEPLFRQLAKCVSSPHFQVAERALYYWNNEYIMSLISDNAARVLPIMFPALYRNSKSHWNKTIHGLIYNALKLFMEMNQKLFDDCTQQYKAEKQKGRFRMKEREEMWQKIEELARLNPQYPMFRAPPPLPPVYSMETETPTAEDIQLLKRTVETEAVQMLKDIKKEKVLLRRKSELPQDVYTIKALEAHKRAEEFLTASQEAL
UniProt Q13136: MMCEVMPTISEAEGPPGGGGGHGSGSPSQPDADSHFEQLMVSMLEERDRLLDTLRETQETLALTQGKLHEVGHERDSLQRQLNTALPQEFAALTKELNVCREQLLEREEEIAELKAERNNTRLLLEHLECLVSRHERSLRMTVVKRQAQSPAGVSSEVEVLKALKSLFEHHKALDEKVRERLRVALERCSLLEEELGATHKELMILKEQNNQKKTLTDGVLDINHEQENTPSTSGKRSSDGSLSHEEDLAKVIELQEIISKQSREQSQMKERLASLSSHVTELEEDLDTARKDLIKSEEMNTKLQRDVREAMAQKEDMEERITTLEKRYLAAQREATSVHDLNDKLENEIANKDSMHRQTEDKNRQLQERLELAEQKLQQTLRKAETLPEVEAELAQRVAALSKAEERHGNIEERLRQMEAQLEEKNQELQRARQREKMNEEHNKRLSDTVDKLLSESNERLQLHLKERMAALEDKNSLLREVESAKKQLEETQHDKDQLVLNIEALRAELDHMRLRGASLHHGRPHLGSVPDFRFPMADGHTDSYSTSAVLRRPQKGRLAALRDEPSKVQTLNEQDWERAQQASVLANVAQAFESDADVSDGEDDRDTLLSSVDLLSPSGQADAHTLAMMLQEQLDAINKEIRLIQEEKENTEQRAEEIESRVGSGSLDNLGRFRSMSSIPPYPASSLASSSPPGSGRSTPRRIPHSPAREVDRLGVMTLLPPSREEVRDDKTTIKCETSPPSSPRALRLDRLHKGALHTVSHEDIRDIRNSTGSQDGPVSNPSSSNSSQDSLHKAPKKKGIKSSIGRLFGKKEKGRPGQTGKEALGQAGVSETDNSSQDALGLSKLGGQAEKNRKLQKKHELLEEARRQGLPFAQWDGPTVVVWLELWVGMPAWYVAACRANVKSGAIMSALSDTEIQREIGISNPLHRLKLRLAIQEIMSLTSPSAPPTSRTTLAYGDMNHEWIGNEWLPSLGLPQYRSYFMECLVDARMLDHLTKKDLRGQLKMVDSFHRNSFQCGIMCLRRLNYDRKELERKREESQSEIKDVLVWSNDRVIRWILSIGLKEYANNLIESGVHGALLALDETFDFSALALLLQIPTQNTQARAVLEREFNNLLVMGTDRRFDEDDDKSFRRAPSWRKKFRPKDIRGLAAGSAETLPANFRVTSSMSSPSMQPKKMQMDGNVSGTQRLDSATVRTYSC

Each substance was assayed against GFP-tagged B56δ (UniProt Q14738) (assay: co-IP).
For “FLAG-tagged full-length liprin-α1 (WT) (from UniProt Q13136 1-1202)”, the binding was “binds”. “FLAG-tagged liprin-α1 Δ1-30 (from UniProt Q13136 31-1202) (domain or fragment)” was tested, and the binding was “binds”. With “FLAG-tagged liprin-α1 Δ1-152 (from UniProt Q13136 153-1202) (domain or fragment)” the binding was “no binding”. In the case of “FLAG-tagged liprin-α1 Δ1-180 (from UniProt Q13136 181-1202) (domain or fragment)”, the binding is reported as “no binding”.
